{"source": "paper PMC7527724", "biological_target": "T1, Sorting nexin 2 (SNX2) (human (endogenous in HEp-2)) (UniProt O60749)", "T1 sequence": "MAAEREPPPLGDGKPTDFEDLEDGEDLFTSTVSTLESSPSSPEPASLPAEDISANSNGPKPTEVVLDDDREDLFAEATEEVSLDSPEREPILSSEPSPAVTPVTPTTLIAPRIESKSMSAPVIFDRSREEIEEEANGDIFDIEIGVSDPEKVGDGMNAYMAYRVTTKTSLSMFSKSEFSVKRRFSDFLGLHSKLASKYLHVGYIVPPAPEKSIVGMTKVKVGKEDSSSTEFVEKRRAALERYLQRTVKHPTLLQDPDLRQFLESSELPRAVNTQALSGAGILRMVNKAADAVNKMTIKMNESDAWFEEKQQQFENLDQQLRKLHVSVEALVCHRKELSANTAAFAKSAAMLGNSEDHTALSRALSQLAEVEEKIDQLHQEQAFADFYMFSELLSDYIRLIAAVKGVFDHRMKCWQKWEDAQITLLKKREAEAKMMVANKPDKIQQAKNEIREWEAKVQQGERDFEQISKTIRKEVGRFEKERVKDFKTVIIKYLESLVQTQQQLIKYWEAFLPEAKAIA", "assay": "proximity ligation; HEp-2 cells infected with HRSV at MOI 1, fixed at 24 hpi with 4% PFA, permeabilised with 0.01% saponin; Duolink in situ PLA with pairs of primary antibodies from different species; confocal microscopy", "note": "No constants are given. Whether binding was seen depends on the method and setting. Binding seen in cells or lysates may run through a third protein. Binding can be weak; no strength is given.", "data": [{"substance": "Human respiratory syncytial virus matrix protein (M)", "values": [{"measurement": "binding", "value": "binds"}]}]}
